The record followed here is publication PMC9952942.

By UniProt entry, the sequences of proteins in these tests, tags left out.
UniProt P14635: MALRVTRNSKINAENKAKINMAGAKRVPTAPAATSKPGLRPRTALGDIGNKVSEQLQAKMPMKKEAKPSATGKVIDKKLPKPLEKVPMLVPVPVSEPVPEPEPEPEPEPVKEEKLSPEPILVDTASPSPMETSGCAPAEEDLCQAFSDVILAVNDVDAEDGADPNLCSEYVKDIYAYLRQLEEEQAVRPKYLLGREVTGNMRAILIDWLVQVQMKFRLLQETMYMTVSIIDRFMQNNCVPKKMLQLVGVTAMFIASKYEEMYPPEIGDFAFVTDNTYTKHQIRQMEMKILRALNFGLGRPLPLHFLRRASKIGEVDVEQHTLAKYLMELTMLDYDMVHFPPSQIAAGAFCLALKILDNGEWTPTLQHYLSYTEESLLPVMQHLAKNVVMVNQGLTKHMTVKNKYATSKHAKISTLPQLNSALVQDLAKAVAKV
UniProt Q9UM11: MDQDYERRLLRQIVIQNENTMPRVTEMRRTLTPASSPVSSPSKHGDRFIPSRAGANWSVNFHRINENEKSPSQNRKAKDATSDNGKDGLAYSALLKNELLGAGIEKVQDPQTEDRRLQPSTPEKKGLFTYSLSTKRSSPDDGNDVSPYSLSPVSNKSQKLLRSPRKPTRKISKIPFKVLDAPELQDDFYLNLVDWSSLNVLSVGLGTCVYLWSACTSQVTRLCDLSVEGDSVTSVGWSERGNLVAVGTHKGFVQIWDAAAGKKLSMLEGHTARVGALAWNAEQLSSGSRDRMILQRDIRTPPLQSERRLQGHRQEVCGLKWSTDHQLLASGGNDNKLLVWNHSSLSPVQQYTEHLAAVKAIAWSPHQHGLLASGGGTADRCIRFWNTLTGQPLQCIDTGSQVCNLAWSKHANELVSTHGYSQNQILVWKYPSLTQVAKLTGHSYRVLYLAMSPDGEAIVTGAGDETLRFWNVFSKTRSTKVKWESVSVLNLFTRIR

Test [1] deals with Cyclin B1, endogenous (human (endogenous in PC3)) (UniProt P14635). Briefly: co-IP; anti-Cyclin B1 (control IgG alongside) immunoprecipitation from 0.5 mg RIPA lysate of control and Nocodazole-arrested (post-G2) PC3 cells; immunoblot with anti-HN1.
The target of test [2] is Cdh1 (co-factor of APC/C), endogenous (human (endogenous in PC3)) (UniProt Q9UM11). The test is described as follows: co-IP; anti-Cdh1 (control IgG alongside) immunoprecipitation from RIPA lysates of vector- and HM-HN1-transfected PC3 cells; immunoblot with anti-HN1.

Results are given in words; binding and its absence hold for the method and conditions named. Binding seen in cells or lysates may run through a third protein. Some binding calls cover weakened binding; strength is not graded here. For some assays here: Where a sequence is shown, tags or fusion partners need not be part of it.

B1: Hematological and neurological expressed 1 (HN1), endogenous (protein, UniProt Q9UK76 1-154)
chain: MTTTTTFKGVDPNSRNSSRVLRPPGGGSNFSLGFDEPTEQPVRKNKMASNIFGTPEENQASWAKSAGAKSSGGREDLESSGLQRRNSSEASSGDFLDLKGEGDIHENVDTDLPGSLGQSEEKPVPAAPVPSPVAPAPVPSRRNPPGGKSSLVLG
Take B1: the binding entry in test [1] is recorded as “binds”.

B2: HM-HN1 (HN1 ORF in pcDNA4-HisMax), transiently expressed in PC3 cells (protein, UniProt Q9UK76 1-154)
chain: B1 chain
With B2, the binding result in test [2] was “binds”.
